Data as given in PubChem BioAssay AID602203 (INSERM, 2012).

Assay: 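Follow-up of knock-downs that sensitize or protect A549 cells against cisplatin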 (follow-up of hits)
Cells: human A549 lung cancer cells
Reagents: siRNA pair against human genes
Conditions: cisplatin at a dose killing half of control-siRNA cells, given 48 h after transfection
Measurement: 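Cisplatin at a dose killing 50% of control cells, 48 h post-transfection; each siRNA +1 protective, -1 sensitizing, 0 if toxic (LDH) or antiproliferative (WST-1); per-gene sum and mean death change versus control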
Direction: summed siRNA score for cisplatin death: higher = more siRNAs reduced cisplatin-induced cell death; change in cisplatin death versus control: higher = fewer cells died than in control
Units: change in cisplatin death versus control in percentage points
Hit rule: In these data the active calls have summed siRNA score for cisplatin death at about -3 or lower, or at about 3 or higher
The deposit covers 999 reagents; below is an unselected part. In the full data, 85 (8.5%) are marked active. 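Unclear how single-siRNA scores of -1, 0 or +1 give the printed -4 to 4 range; calls lie near -3 or 3 and beyond.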 No sequences are given here. Not given: the amount of reagent, the time to read-out, the dose of the treatment.

PCSK1N (GeneID 27344) — summed siRNA score for cisplatin death = -1; call = inactive
RAB21 (GeneID 23011) — summed siRNA score for cisplatin death = 1; call = inactive
PIM2 (GeneID 11040) — summed siRNA score for cisplatin death = 0; call = inactive
CLIC1 (GeneID 1192) — summed siRNA score for cisplatin death = -4; change in cisplatin death versus control = -9; call = active
LMTK1 (GeneID 9625) — summed siRNA score for cisplatin death = 1; call = inactive
IKBKE (GeneID 9641) — summed siRNA score for cisplatin death = 0; call = inactive
TAB1 (GeneID 10454) — summed siRNA score for cisplatin death = 0; call = inactive
GAS8-AS1 (GeneID 750) — summed siRNA score for cisplatin death = -1; call = inactive
PF4 (GeneID 5196) — summed siRNA score for cisplatin death = 1; call = inactive
ADIPOR2 (GeneID 79602) — summed siRNA score for cisplatin death = -1; call = inactive
SP140L (GeneID 93349) — summed siRNA score for cisplatin death = -2; call = inactive
IAPP (GeneID 3375) — summed siRNA score for cisplatin death = -4; change in cisplatin death versus control = -8.82; call = active
LRRC57 (GeneID 255252) — summed siRNA score for cisplatin death = 0; call = inactive
LOC391528 — summed siRNA score for cisplatin death = 0; call = inactive
DDOST (GeneID 1650) — summed siRNA score for cisplatin death = 1; call = inactive
EMP3 (GeneID 2014) — summed siRNA score for cisplatin death = 1; call = inactive
PSMC5 (GeneID 5705) — summed siRNA score for cisplatin death = 3; change in cisplatin death versus control = 16.3; call = active
SEC23IP (GeneID 11196) — summed siRNA score for cisplatin death = 1; call = inactive
OSTN (GeneID 344901) — summed siRNA score for cisplatin death = -2; call = inactive

Reformatted: 2 of the entries above.
target	summed siRNA score for cisplatin death	change in cisplatin death versus control	call
LRRC57 (GeneID 255252)	0		inactive
LOC391528	0		inactive
